These are yes or no findings as the source states them, for the method shown. Some binding calls cover weakened binding; strength is not graded here. Where a sequence is shown, tags or fusion partners need not be part of it.
Biological target: T1, His-tag-ANXA4 (annexin A4) (UniProt P09525)
T1 sequence (chain, in MST only, labelled with His-Tag Labeling Kit RED-tris-NTA (NT647 fluorophore)): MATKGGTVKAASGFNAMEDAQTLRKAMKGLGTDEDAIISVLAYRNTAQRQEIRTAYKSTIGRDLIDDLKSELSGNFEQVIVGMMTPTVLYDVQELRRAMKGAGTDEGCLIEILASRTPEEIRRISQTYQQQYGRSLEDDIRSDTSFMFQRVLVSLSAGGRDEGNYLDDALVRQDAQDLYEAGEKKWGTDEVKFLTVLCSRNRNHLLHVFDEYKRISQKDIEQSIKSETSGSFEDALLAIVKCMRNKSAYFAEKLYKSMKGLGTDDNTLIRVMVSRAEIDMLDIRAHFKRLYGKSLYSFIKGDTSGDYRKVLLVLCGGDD
Assay: SPR; Biacore T200; His-tag-ANXA4 captured on anti-histidine antibody coupled to CM5 chip; peptide 0.08-5 uM injected at 25 C, 30 uL/min, 120 s association, 600 s dissociation; HBS-P+ pH 7.4 with 5 mM CaCl2; global 1:1 fit, KD = kd/ka; both purified

QHLAKPS (N-terminal acetyl) [peptide 5 (QHLAKPS)]
binding: binds

QHAIKPS (N-terminal acetyl) [peptide 6 (QHAIKPS)]
binding: binds

From PMC8655160, “Overcome Chemoresistance: Biophysical and Structural Analysis of Synthetic FHIT-Derived Peptides” (Frontiers in Molecular Biosciences, 2021)
